Data published in publication PMC8881624.
These are yes or no findings as the source states them, for the method shown. In cells and extracts the contact can be indirect. Here binding means that the protein was enriched with, or labelled near, the bait; the list need not be complete. No binding means not detected with the bait. Sequences can lack the tags named with a protein.

The chains behind the UniProt entries cited, without tags or fusion partners. Where a name states a change or a piece, a line headed by the entry shows the natural chain unless it says otherwise.
UniProt O59855: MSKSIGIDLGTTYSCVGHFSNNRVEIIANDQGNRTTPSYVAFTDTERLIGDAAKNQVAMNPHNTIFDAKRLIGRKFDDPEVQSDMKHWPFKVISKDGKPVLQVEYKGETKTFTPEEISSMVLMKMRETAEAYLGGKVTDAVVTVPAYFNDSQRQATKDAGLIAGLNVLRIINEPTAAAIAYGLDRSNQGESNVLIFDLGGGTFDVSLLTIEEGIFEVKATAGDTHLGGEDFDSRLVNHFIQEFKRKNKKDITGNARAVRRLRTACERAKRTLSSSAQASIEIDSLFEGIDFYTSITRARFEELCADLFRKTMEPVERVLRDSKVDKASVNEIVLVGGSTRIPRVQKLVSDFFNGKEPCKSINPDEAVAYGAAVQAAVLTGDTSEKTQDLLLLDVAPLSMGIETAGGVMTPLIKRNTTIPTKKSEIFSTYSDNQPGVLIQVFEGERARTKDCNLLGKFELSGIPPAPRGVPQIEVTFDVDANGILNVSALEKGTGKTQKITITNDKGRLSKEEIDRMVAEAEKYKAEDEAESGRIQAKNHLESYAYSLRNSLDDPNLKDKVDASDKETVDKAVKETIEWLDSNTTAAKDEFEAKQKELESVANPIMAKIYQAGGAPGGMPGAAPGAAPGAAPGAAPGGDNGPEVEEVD
UniProt Q9USL2: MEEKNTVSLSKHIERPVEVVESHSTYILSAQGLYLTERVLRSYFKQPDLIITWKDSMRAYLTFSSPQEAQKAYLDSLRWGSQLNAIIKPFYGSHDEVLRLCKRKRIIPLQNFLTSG

T1: 3xFLAG-Pof8 (S. pombe) (UniProt O13795)
T1 sequence: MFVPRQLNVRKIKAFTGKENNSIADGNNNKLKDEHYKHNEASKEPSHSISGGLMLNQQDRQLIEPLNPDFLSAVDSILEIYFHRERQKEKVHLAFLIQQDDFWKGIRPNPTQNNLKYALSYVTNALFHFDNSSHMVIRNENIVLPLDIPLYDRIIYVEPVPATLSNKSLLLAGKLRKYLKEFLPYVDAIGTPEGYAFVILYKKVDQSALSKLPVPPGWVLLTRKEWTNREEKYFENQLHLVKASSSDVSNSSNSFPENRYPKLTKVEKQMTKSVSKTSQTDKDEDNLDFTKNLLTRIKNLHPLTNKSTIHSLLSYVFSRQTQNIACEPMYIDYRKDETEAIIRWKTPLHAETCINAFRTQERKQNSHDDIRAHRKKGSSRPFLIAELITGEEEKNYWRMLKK

B1: Lsm4, endogenous (protein, UniProt O14352 1-121)
chain: MLPLTLLNATQGRPILVELKNGETFNGHLENCDNYMNLTLREVIRTMPDGDKFFRLPECYIRGNNIKYLRIQDEVLSQVAKQQAQQRENRGSRFRGRGQRGRGNYGHTAPNRRGRGRGGHM

target: T1, 3xFLAG-Pof8 (S. pombe); test: affinity purification with mass spectrometry; 3xFLAG-Pof8 precipitated on anti-FLAG agarose from S. pombe cell-free extract (50 mM Tris-HCl pH 7.5, 150 mM NaCl, 0.1% NP40, 10% glycerol; 8 h at 4 °C; washes with 250 mM NaCl), eluted with 3x FLAG peptide, MudPIT; untagged strain as control

binding | Molecule
no binding | heat-shock protein Ssa2 (from UniProt O59855 1-647)
binds | Thc1 (SPCC18b5.09c), endogenous (from UniProt Q9USL2)
binds | B1
